PubChem BioAssay AID720505, Drosophila RNAi Screening Center – 2013
Aim: 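Knock-downs that reduce calcium influx once internal stores are emptied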 (primary screen). Cells: Drosophila S2R+ cells. Reagents: long dsRNA against Drosophila genes. Treatment: thapsigargin (2 µM) in calcium-free buffer to empty internal stores, then 2 mM calcium added back. Measurement: 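Fluo-4 signal in 384-well plates read on a FLIPR after thapsigargin (2 µM, calcium-free) store depletion and 2 mM calcium add-back; unnormalised mean endpoint per well; screen run twice, selected wells retested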. Scale: calcium signal and retest calcium signal: higher = more calcium entry after store depletion. Active means: 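Knock-downs counted as hits when calcium entry dropped relative to STIM1 positive and Rho1 negative controls present on each plate; roughly 1500 genes called, with reductions of differing size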. Meaning of the calls: active = called as lowering calcium entry; inactive = not called.
In all, the deposit lists about 20,000 reagents; shown is an unselected part of those with a known target gene and a result. In the full data, about 2,100 (10%) got an active call. 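Raw plate signals without normalisation; calls rest on control-based scores that were not deposited; replicate 2 separates called from uncalled poorly.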 Names joined by + are all predicted targets of the reagent. The record does not give: the amount of reagent, the time to read-out.

target gene | DRSC id | calcium signal, replicate 1 | calcium signal, replicate 2 | retest calcium signal, replicate 1 | retest calcium signal, replicate 2 | activity call
CG16986 | DRSC08502 | 83.1 | 74.5 | – | – | inactive
CG15382 | DRSC00397 | 130 | 143 | – | – | inactive
Gnptab | DRSC07057 | 161 | 168 | – | – | inactive
SmD2 (Small ribonucleoprotein particle protein SmD2) | DRSC12536 | 105 | 102 | – | – | inactive
btv (beethoven) | DRSC01615 | 164 | 108 | – | – | inactive
btv (beethoven) | DRSC02449 | 115 | 135 | – | – | inactive
CG13843 | DRSC14693 | 93.5 | 83.6 | – | – | inactive
CG3999 | DRSC15534 | 112 | 114 | – | – | inactive
eff (effete) | DRSC16940 | 122 | 149 | – | – | inactive
Plap (Phospholipase A2 activator protein) | DRSC00678 | 129 | 285 | – | – | inactive
CG7860 | DRSC20060 | 152 | 149 | – | – | inactive
CG13403 | DRSC19535 | 94.6 | 111 | – | – | inactive
CG4278 | DRSC02741 | 91.4 | 122 | – | – | inactive
CG12640 | DRSC17847 | 126 | 111 | – | – | inactive
fs(1)M3 (female sterile (1) M3) | DRSC18381 | 176 | 127 | – | – | inactive
CG4853 | DRSC06898 | 113 | 138 | – | – | inactive
CG31635 | DRSC02273 | 167 | 102 | – | – | inactive
CG31635 | DRSC02274 | 145 | 122 | – | – | inactive
CG32533 | DRSC19443 | 197 | 143 | – | – | inactive
CG32533 | DRSC19553 | 191 | 115 | – | – | inactive
gdl-ORF39 + gdl | DRSC11350 | 98.4 | 151 | – | – | inactive
CG18265 | DRSC10310 | 91 | 208 | – | – | inactive
org-1 (optomotor-blind-related-gene-1) | DRSC18810 | 208 | 125 | – | – | inactive
org-1 (optomotor-blind-related-gene-1) | DRSC22974 | 94.2 | 80.4 | – | – | inactive
dind (diamond) | DRSC16294 | 107 | 189 | – | – | inactive
Cec2 (Cecropin 2) | DRSC21885 | 84.6 | 191 | – | – | inactive
bma (black match) | DRSC09896 | 85.8 | 96.9 | – | – | inactive
bma (black match) | DRSC10164 | 113 | 128 | – | – | inactive
COX4L (Cytochrome c oxidase subunit 4-like) | DRSC04841 | 114 | 156 | – | – | inactive
mmy (mummy) | DRSC02002 | 164 | 256 | – | – | inactive
CG5863 | DRSC15898 | 115 | 220 | – | – | inactive
boi | DRSC18425 | 105 | 118 | – | – | inactive
boi | DRSC18598 | 85.5 | 125 | – | – | inactive
PAN3 (Poly(A) specific ribonuclease subunit PAN3) | DRSC08190 | 66 | 89.5 | – | – | active
CG43193 (retired record) | DRSC20426 | 104 | 79.6 | – | – | inactive
grass (Gram-positive Specific Serine protease) | DRSC15911 | 152 | 183 | – | – | inactive
Nubpl (NUBP iron-sulfur cluster assembly factor, mitochondrial) | DRSC03725 | 68.9 | 177 | – | – | active

Next part; the last 4 above are carried over.
target gene | DRSC id | calcium signal, replicate 1 | calcium signal, replicate 2 | retest calcium signal, replicate 1 | retest calcium signal, replicate 2 | activity call
PAN3 (Poly(A) specific ribonuclease subunit PAN3) | DRSC08190 | 66 | 89.5 | – | – | active
CG43193 (retired record) | DRSC20426 | 104 | 79.6 | – | – | inactive
grass (Gram-positive Specific Serine protease) | DRSC15911 | 152 | 183 | – | – | inactive
Nubpl (NUBP iron-sulfur cluster assembly factor, mitochondrial) | DRSC03725 | 68.9 | 177 | – | – | active
Cbp20 (cap binding protein 20) | DRSC16601 | 144 | 107 | – | – | inactive
Chc (Clathrin heavy chain) | DRSC20229 | 151 | 122 | – | – | inactive
CLIP-190 (Cytoplasmic linker protein 190) | DRSC03283 | 89 | 101 | – | – | inactive
CG13461 | DRSC10008 | 106 | 160 | – | – | inactive
dlg1 (discs large 1) | DRSC19767 | 78.5 | 98.3 | – | – | inactive
dlg1 (discs large 1) | DRSC20324 | 133 | 78.7 | – | – | inactive
CG8188 | DRSC20090 | 63.6 | 107 | 123 | 112 | active
Pfdn6 (Prefoldin 6) | DRSC10915 | 101 | 102 | – | – | inactive
CG10357 | DRSC08155 | 77.8 | 109 | – | – | inactive
CG3036 | DRSC00260 | 97.2 | 162 | 89.3 | 80.1 | inactive
CG3036 | DRSC00562 | 59.8 | 163 | – | – | active
CG14667 | DRSC12253 | 124 | 116 | – | – | inactive
CG15283 | DRSC01980 | 96 | 140 | – | – | inactive
OstDelta (Oligosaccharide transferase Delta subunit) | DRSC06980 | 168 | 129 | – | – | inactive
Ilp4 (Insulin-like peptide 4) | DRSC10701 | 80.4 | 73.5 | – | – | inactive
scb (scab) | DRSC05542 | 133 | 147 | – | – | inactive
scb (scab) | DRSC07678 | 124 | 166 | – | – | inactive
CG30466 | DRSC05556 | 90.6 | 123 | – | – | inactive
CG12128 + CG1407 | DRSC06446 | 196 | 135 | – | – | inactive
